Data: the supplement of paper PMC7877785
± gives the uncertainty stated by the source. Many of these values have a large error.

Experiment: self-splicing fitness, log relative to wild type (ln ratio); higher = more splicing; Tetrahymena group I intron in knt gene, E. coli kanamycin selection, DiMSum; sequences stand for … in CUCUCU…GGAGGGAAAAGUUAUCAGGCAUGCACCUGGUAGCUAGUCUUUAAACCAAUAGAUUGCAUCGGUUUAAAAGGCAAGACCGUCAAAUUGCGGGAAAGGGGUCAACAGCCGUUCAGUACCAAGUCUCAGGGGAAACUUUGAGAUGGCCUUGCAAAGGGUAUGGUAAUAAGCUGACGGACAUGGUCCUAACCACGCAGCCAAGUCCUAAGUCAACAGAUCUUCUGUUGAUAUGGAUGCAGUUCACAGACUAAAUGUCGGUCGGGGAAGAUGUAUUCUUCUCAUAAGAUAUAGUCGGACCUCUCCUUAAUGGGAGCUAGCGGAUGAAGUGAUGCAACACUGGAGCCGCUGGGAACUAAUUUGUAUGCGAAAGUAUAUUGAUUAGUUUUGGAGUACUCGUGGUCG
Procedure, shortened: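 Colonies from six replicate transformations of E. coli BL21(DE3) were pooled and amplicon-sequenced on an Illumina HiSeq 2500. The library placed an intron with all eight P1ex-region nucleotides randomised inside the knt kanamycin-resistance gene on pET-22b(+), and cells grew overnight at 37°C or 30°C on LB agar with or without 25 μg/mL kanamycin (plus 100 μg/mL carbenicillin, 50 μM IPTG, 0.2% rhamnose). Fitness is the DiMSum error-weighted combination of wild-type-normalised replicate fold changes, kanamycin versus none.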

Row | Sequence | self-splicing fitness (ln) (30 °C) | self-splicing fitness (ln) (37 °C)
1 | AGGAAGCAAUAUUACGGGGG | -4.49 ± 0.59 | -1.89 ± 0.36
2 | CUGCAGCAAUAUUACGGACA | -4 ± 0.6 | 
3 | ACUAAGCAAUAUUACGUUUG | -3.62 ± 0.18 | -2.22 ± 0.17
4 | CAUCAGCAAUAUUACGGGAU | -4.36 ± 1 | 
5 | UCGAAGCAAUAUUACGAGAC |  | -3.57 ± 0.73
6 | ACAUAGCAAUAUUACGUCUG | -1.24 ± 0.071 | -0.845 ± 0.09
7 | GCUUAGCAAUAUUACGCCCC | -1.3 ± 0.83 | -0.644 ± 0.65
8 | GGAGAGCAAUAUUACGCAGA | -1.87 ± 0.81 | -2.2 ± 1.1
9 | UCCGAGCAAUAUUACGCCCU |  | -2.72 ± 0.54
10 | AUCGAGCAAUAUUACGUACG | -3.45 ± 0.6 | 
11 | UCAAAGCAAUAUUACGGAGC | -3.72 ± 0.52 | 
12 | CCGUAGCAAUAUUACGAUAC |  | -4.52 ± 1
13 | AUCGAGCAAUAUUACGAUGA | -3.37 ± 0.25 | -1.86 ± 0.16
14 | CUUUAGCAAUAUUACGCCAU | -3.57 ± 0.75 | -1.34 ± 0.87
15 | GGCCAGCAAUAUUACGAAGG | -3.63 ± 0.52 | 
16 | GAAGAGCAAUAUUACGAACG | -4.94 ± 0.51 | 
17 | CUAAAGCAAUAUUACGUCCA | -3.01 ± 0.19 | -2.79 ± 0.31
18 | GAAGAGCAAUAUUACGGCCA | -1.59 ± 0.3 | -1.27 ± 0.5
19 | GUUCAGCAAUAUUACGACUC | 0.0553 ± 0.47 | 0.9 ± 0.54
20 | CCGGAGCAAUAUUACGCACG | -3.96 ± 1 | 
21 | CAUGAGCAAUAUUACGCCAU |  | -2.19 ± 0.51
22 | AUUGAGCAAUAUUACGCCGA | -3.96 ± 0.6 | -1.79 ± 1.2
23 | UAAUAGCAAUAUUACGACAC |  | -1.33 ± 0.63

A second format for some results above.

| Row | Sequence | self-splicing fitness (ln) (30 °C) | self-splicing fitness (ln) (37 °C) |
| --- | --- | --- | --- |
| 1 | AGGAAGCAAUAUUACGGGGG | -4.49 ± 0.59 | -1.89 ± 0.36 |
| 3 | ACUAAGCAAUAUUACGUUUG | -3.62 ± 0.18 | -2.22 ± 0.17 |
| 4 | CAUCAGCAAUAUUACGGGAU | -4.36 ± 1 |  |
| 5 | UCGAAGCAAUAUUACGAGAC |  | -3.57 ± 0.73 |
| 8 | GGAGAGCAAUAUUACGCAGA | -1.87 ± 0.81 | -2.2 ± 1.1 |
| 10 | AUCGAGCAAUAUUACGUACG | -3.45 ± 0.6 |  |
| 11 | UCAAAGCAAUAUUACGGAGC | -3.72 ± 0.52 |  |
| 21 | CAUGAGCAAUAUUACGCCAU |  | -2.19 ± 0.51 |
| 22 | AUUGAGCAAUAUUACGCCGA | -3.96 ± 0.6 | -1.79 ± 1.2 |

Continuation.

Row | Sequence | self-splicing fitness (ln) (30 °C) | self-splicing fitness (ln) (37 °C)
24 | UUUGAGCAAUAUUACGGAAU | -1.39 ± 0.76 | -1.91 ± 0.6
25 | UGCUAGCAAUAUUACGUUCC | -3.97 ± 1 | 
26 | GUUUAGCAAUAUUACGUUCC |  | -1.09 ± 0.5
27 | GAGUAGCAAUAUUACGCAAU | -4.22 ± 0.59 | 
28 | UGGUAGCAAUAUUACGAAGU | -3.19 ± 0.54 | -1.11 ± 0.53
29 | CUGAAGCAAUAUUACGCGCU | -3.35 ± 0.29 | -2.76 ± 0.74
30 | UUCUAGCAAUAUUACGGAGG |  | -3.51 ± 0.61
31 | CGCGAGCAAUAUUACGCCAC |  | -1.82 ± 0.53
32 | GCUGAGCAAUAUUACGCGUA | -3.7 ± 1 | 
33 | UGUUAGCAAUAUUACGGAGC | -3.14 ± 0.61 | 
34 | CUUAAGCAAUAUUACGGGCG | -0.789 ± 0.13 | -0.48 ± 0.14
35 | GCAAAGCAAUAUUACGUGAU | -0.863 ± 0.053 | -0.973 ± 0.075
36 | GAGUAGCAAUAUUACGGACU | -0.25 ± 0.072 | -0.487 ± 0.096
37 | GAUGAGCAAUAUUACGAGGG | -4.5 ± 0.59 | 
38 | CUUUAGCAAUAUUACGAUAC | -3.4 ± 0.39 | -2.42 ± 0.45
39 | CAUUAGCAAUAUUACGUCCA | -3.34 ± 0.32 | -1.3 ± 0.28
40 | CGGAAGCAAUAUUACGCUCC | -2.01 ± 0.69 | -2.3 ± 0.77
41 | AAGGAGCAAUAUUACGGAGC |  | -2.76 ± 1.1
42 | UCCAAGCAAUAUUACGCCAG | -3.06 ± 0.75 | 
43 | UCCAAGCAAUAUUACGAUCG | -2.65 ± 0.19 | -3.06 ± 0.24
44 | UCCCAGCAAUAUUACGCGGC | -3.81 ± 0.54 | 
45 | AAGUAGCAAUAUUACGGAAC | -1.4 ± 0.49 | -1.46 ± 0.25
46 | UGGCAGCAAUAUUACGGGCC | -3.78 ± 0.6 | 
